According to US10016444B2, “Molecules for bone tissue regeneration” (ISTITUTO ORTOPEDICO RIZZOLI, priority 2014, dated 2018):

What was measured:
[1] = system: human mesenchymal stem cells (MSCs); experiment: Mineralisation assay on MSCs (Alizarin Red); type: cell-based; conditions: osteogenic conditions, 21 days, dose dependence
Experimental: The evaluation of the functional capacity to deposit inorganic matrix on the part of MSC cells was evaluated with an in vitro mineralisation assay, according to an already consolidated method (Grassi F. et al. J. Tissue Eng Reg Med, 2013); MSC cells were maintained under culture for 21 days in the presence of […] of ascorbic acid, 2 mM of β-glycerophosphate and 100 nM of dexamethasone. The medium was changed twice a week with the addition of DM-22 or alendronate at the specified concentrations. Finally, the mineralised matrix was visualised by staining with Alizarin Red and quantified by spectrophotometry (Nanoquant, Tecan Group, Mannedorf, Switzerland).

human osteoclasts (OCs) = conditions: OCs on Biocoat Osteologic slides, qualitative evaluation
Experimental: The ability of OCs to perform a physiological function of degrading the inorganic matrix was assessed by means of the ‘Pit Assay’, in which the OCs were cultured on Biocoat Osteologic (BD Bioscience) slides according to the procedure described in detail above.

[2] = system: human mesenchymal stem cells (MSCs); conditions: 72 h, 33 μM

Question: For `NCCCC(O)(P(=O)(O)O)P(=O)(O)O` [alendronate, reference compound], which “mineralising capacity of MSCs (Alizarin Red)” value [1] is on record?
Answer: progressive, dose-dependent inhibition

Question: What about the “inhibition of erosive capacity of OCs (pits, qualitative)” value (human osteoclasts (OCs)) of the same molecule?
Answer: inhibits the erosive capacity of OCs starting from the lowest concentration

Question: And the “cellular toxicity (LDH assay)” value [2]?
Answer: significant cellular toxicity
